# Measurements as given in the supplement of paper PMC8728848.
# The other results are listed elsewhere or left out.
# B1: SspB C123 (Streptococcus gordonii), Q54186 (protein)
# chain: MAHFHYSSLLAQPQINKEIKNEDGVDIDRTLVAKQSIGKFELKTEALTAGRPKTTSFVLVDPLPTGYKFDLDATKAASTGFDTTYDEASHTVTFKATDETLATYNADLTKPVETLHPTVVGRVLNDGATYTNNFTLTVNDAYGIKSNVVRVTTPGKPNDPDNPNNNYIKPTKVNKNKEGLNIDGKEVLAGSTNYYELTWDLDQYKGDKSSKEAIQNGFYYVDDYPEEALDVRPDLVKVADEKGNQVSGVSVQQYDSLEAAPKKVQDLLKKANITVKGAFQLFSADNPEEFYKQYVSTGTSLVITDPMTVKSEFGKTGGKYENKAYQIDFGNGYATEVVVNNVPKITPKKDVTVSLDPTSENLDGQTVQLYQTFNYRLIGGFIPQNHSEELEDYSFVDDYDQAGDQYTGNYKTFSSLNLTMKDGSVIKAGTDLTSQTTAETDATNGIVTVRFKEDFLQKISLDSPFQAETYLQMRRIAIGTFENTYVNTVNKVAYASAAALEHHHHHH
# Columns and labels:
# Test in all cases: glycan array binding signal (z-score within array); higher = stronger binding
# Conditions in all cases: glycan notation: IUPAC condensed, linker removed
# Gal(a1-3)Gal(b1-3)GlcNAc = molecular target: Gal(a1-3)Gal(b1-3)GlcNAc
# Summary of the method: (§1)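 Glycan array data came from 3228 arrays in the Consortium for Functional Glycomics database, and only arrays with an available protein sequence were kept. Glycan names were put into IUPAC-condensed notation, and columns mapping to the same glycan were averaged. The binding signal is a within-array Z-score, averaged across arrays of one protein sequence run at different concentrations or buffers and across linkers. A negative Z-score can be read as non-binding.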
# [1] = molecular target: Gal(a1-3)Gal(b1-3)GlcNAc(b1-2)Man
# Summary of the method: as §1
# [2] = molecular target: Gal(a1-3)Gal(b1-3)GlcNAc(b1-2)Man(a1-3)[Gal(a1-3)Gal(b1-3)GlcNAc(b1-2)Man(a1-6)]Man(b1-4)GlcNAc(b1-4)GlcNAc
# Summary of the method: as §1
# [3] = molecular target: Gal(a1-3)Gal(b1-3)GlcNAc(b1-3)GalNAc
# Summary of the method: as §1
# [4] = molecular target: Gal(a1-3)Gal(b1-3)GlcNAc(b1-6)GalNAc
# Summary of the method: as §1
# [5] = molecular target: Gal(a1-3)Gal(b1-3)[Fuc(a1-4)]GlcNAc(b1-2)Man(a1-3)[Gal(a1-3)Gal(b1-3)[Fuc(a1-4)]GlcNAc(b1-2)Man(a1-6)]Man(b1-4)GlcNAc(b1-4)GlcNAc
# Summary of the method: as §1
# Gal(a1-3)Gal(b1-4)Glc = molecular target: Gal(a1-3)Gal(b1-4)Glc
# Summary of the method: as §1
# Gal(a1-3)Gal(b1-4)GlcNAc = molecular target: Gal(a1-3)Gal(b1-4)GlcNAc
# Summary of the method: as §1
# [6] = molecular target: Gal(a1-3)Gal(b1-4)GlcNAc(b1-2)Man
# Summary of the method: as §1
# [7] = molecular target: Gal(a1-3)Gal(b1-4)GlcNAc(b1-2)Man(a1-3)[Gal(a1-3)Gal(b1-4)GlcNAc(b1-2)Man(a1-6)]Man(b1-4)GlcNAc(b1-4)GlcNAc
# Summary of the method: as §1
# [8] = molecular target: Gal(a1-3)Gal(b1-4)GlcNAc(b1-3)GalNAc
# Summary of the method: as §1
# [9] = molecular target: Gal(a1-3)Gal(b1-4)GlcNAc(b1-6)GalNAc
# Summary of the method: as §1
# [10] = molecular target: Gal(a1-3)Gal(b1-4)[Fuc(a1-3)]GlcNAc
# Summary of the method: as §1
# [11] = molecular target: Gal(a1-3)Gal(b1-4)[Fuc(a1-3)]GlcNAc(b1-2)Man(a1-3)[Gal(a1-3)Gal(b1-4)[Fuc(a1-3)]GlcNAc(b1-2)Man(a1-6)]Man(b1-4)GlcNAc(b1-4)GlcNAc
# Summary of the method: as §1
# Gal(a1-3)GalNAc = molecular target: Gal(a1-3)GalNAc
# Summary of the method: as §1
# [12] = molecular target: Gal(a1-3)[Gal(a1-4)]Gal(b1-4)GlcNAc
# Summary of the method: as §1
# [13] = molecular target: Gal(a1-4)Gal(b1-3)GlcNAc(b1-2)Man(a1-3)[Gal(a1-4)Gal(b1-3)GlcNAc(b1-2)Man(a1-6)]Man(b1-4)GlcNAc(b1-4)GlcNAc
# Summary of the method: as §1
# Gal(a1-4)Gal(b1-4)Glc = molecular target: Gal(a1-4)Gal(b1-4)Glc
# Summary of the method: as §1
# Gal(a1-4)Gal(b1-4)GlcNAc = molecular target: Gal(a1-4)Gal(b1-4)GlcNAc
# Summary of the method: as §1
# [14] = molecular target: Gal(a1-4)Gal(b1-4)GlcNAc(b1-2)Man(a1-3)[Gal(a1-4)Gal(b1-4)GlcNAc(b1-2)Man(a1-6)]Man(b1-4)GlcNAc(b1-4)GlcNAc
# Summary of the method: as §1
# [15] = molecular target: Gal(a1-4)Gal(b1-4)GlcNAc(b1-3)Gal(b1-4)Glc
# Summary of the method: as §1
# Gal(a1-4)GlcNAc = molecular target: Gal(a1-4)GlcNAc
# Summary of the method: as §1
# Gal(a1-6)Glc = molecular target: Gal(a1-6)Glc
# Summary of the method: as §1
# Gal(b1-2)Gal = molecular target: Gal(b1-2)Gal
# Summary of the method: as §1
# Gal(b1-3)Gal = molecular target: Gal(b1-3)Gal
# Summary of the method: as §1
# Gal(b1-3)Gal(b1-4)GlcNAc = molecular target: Gal(b1-3)Gal(b1-4)GlcNAc
# Summary of the method: as §1
# Gal(b1-3)GalNAc = molecular target: Gal(b1-3)GalNAc
# Summary of the method: as §1
# [16] = molecular target: Gal(b1-3)GalNAc(a1-3)[Fuc(a1-2)]Gal(b1-4)Glc
# Summary of the method: as §1
# [17] = molecular target: Gal(b1-3)GalNAc(a1-3)[Fuc(a1-2)]Gal(b1-4)GlcNAc
# Summary of the method: as §1
# Gal(b1-3)GalNAc(b1-3)Gal = molecular target: Gal(b1-3)GalNAc(b1-3)Gal
# Summary of the method: as §1
# [18] = molecular target: Gal(b1-3)GalNAc(b1-3)Gal(a1-4)Gal(b1-4)Glc
# Summary of the method: as §1
# [19] = molecular target: Gal(b1-3)GalNAc(b1-4)Gal(b1-4)Glc
# Summary of the method: as §1
# [20] = molecular target: Gal(b1-3)GalNAc(b1-4)[Neu5Ac(a2-3)]Gal(b1-4)Glc
# Summary of the method: as §1
# Gal(b1-3)GlcNAc = molecular target: Gal(b1-3)GlcNAc
# Summary of the method: as §1
# [21] = molecular target: Gal(b1-3)GlcNAc(a1-3)Gal(b1-4)GlcNAc
# Summary of the method: as §1
# [22] = molecular target: Gal(b1-3)GlcNAc(a1-6)Gal(b1-4)GlcNAc
# Summary of the method: as §1
# Gal(b1-3)GlcNAc(b1-2)Man = molecular target: Gal(b1-3)GlcNAc(b1-2)Man
# Summary of the method: as §1
# [23] = molecular target: Gal(b1-3)GlcNAc(b1-2)Man(a1-3)[Gal(b1-3)GlcNAc(b1-2)Man(a1-6)]Man(b1-4)GlcNAc(b1-4)GlcNAc
# Summary of the method: as §1
binder,measurement,setting,value
B1,glycan array binding signal (z-score),Gal(a1-3)Gal(b1-3)GlcNAc,-1.06
same,glycan array binding signal (z-score),[1],-0.562
same,glycan array binding signal (z-score),[2],1.52
same,glycan array binding signal (z-score),[3],0.045
same,glycan array binding signal (z-score),[4],-0.238
same,glycan array binding signal (z-score),[5],0.65
same,glycan array binding signal (z-score),Gal(a1-3)Gal(b1-4)Glc,-0.162
same,glycan array binding signal (z-score),Gal(a1-3)Gal(b1-4)GlcNAc,-1.14
same,glycan array binding signal (z-score),[6],-0.109
same,glycan array binding signal (z-score),[7],0.697
same,glycan array binding signal (z-score),[8],-0.133
same,glycan array binding signal (z-score),[9],-0.267
same,glycan array binding signal (z-score),[10],0.396
same,glycan array binding signal (z-score),[11],0.441
same,glycan array binding signal (z-score),Gal(a1-3)GalNAc,0.07
same,glycan array binding signal (z-score),[12],1.5
same,glycan array binding signal (z-score),[13],-1.06
same,glycan array binding signal (z-score),Gal(a1-4)Gal(b1-4)Glc,0.734
same,glycan array binding signal (z-score),Gal(a1-4)Gal(b1-4)GlcNAc,0.07
same,glycan array binding signal (z-score),[14],0.315
same,glycan array binding signal (z-score),[15],-0.079
same,glycan array binding signal (z-score),Gal(a1-4)GlcNAc,-0.961
same,glycan array binding signal (z-score),Gal(a1-6)Glc,-0.129
same,glycan array binding signal (z-score),Gal(b1-2)Gal,-0.199
same,glycan array binding signal (z-score),Gal(b1-3)Gal,1.54
same,glycan array binding signal (z-score),Gal(b1-3)Gal(b1-4)GlcNAc,-1.16
same,glycan array binding signal (z-score),Gal(b1-3)GalNAc,-0.084
same,glycan array binding signal (z-score),[16],-0.787
same,glycan array binding signal (z-score),[17],-0.075
same,glycan array binding signal (z-score),Gal(b1-3)GalNAc(b1-3)Gal,0.717
same,glycan array binding signal (z-score),[18],-0.876
same,glycan array binding signal (z-score),[19],-1.1
same,glycan array binding signal (z-score),[20],0.854
same,glycan array binding signal (z-score),Gal(b1-3)GlcNAc,-0.389
same,glycan array binding signal (z-score),[21],-1.2
same,glycan array binding signal (z-score),[22],-0.134
same,glycan array binding signal (z-score),Gal(b1-3)GlcNAc(b1-2)Man,2.04
same,glycan array binding signal (z-score),[23],0.755

# Two entries picked at random from the list so far:
binder,measurement,setting,value
B1,glycan array binding signal (z-score),Gal(b1-3)Gal(b1-4)GlcNAc,-1.16
same,glycan array binding signal (z-score),[5],0.65
